From paper PMC11599123 come the findings set out here.

Sequences of proteins named here, by UniProt entry; tags and fusion partners are left off. A change or cut given only in a name is not applied to a line headed by its entry.
UniProt Q13153: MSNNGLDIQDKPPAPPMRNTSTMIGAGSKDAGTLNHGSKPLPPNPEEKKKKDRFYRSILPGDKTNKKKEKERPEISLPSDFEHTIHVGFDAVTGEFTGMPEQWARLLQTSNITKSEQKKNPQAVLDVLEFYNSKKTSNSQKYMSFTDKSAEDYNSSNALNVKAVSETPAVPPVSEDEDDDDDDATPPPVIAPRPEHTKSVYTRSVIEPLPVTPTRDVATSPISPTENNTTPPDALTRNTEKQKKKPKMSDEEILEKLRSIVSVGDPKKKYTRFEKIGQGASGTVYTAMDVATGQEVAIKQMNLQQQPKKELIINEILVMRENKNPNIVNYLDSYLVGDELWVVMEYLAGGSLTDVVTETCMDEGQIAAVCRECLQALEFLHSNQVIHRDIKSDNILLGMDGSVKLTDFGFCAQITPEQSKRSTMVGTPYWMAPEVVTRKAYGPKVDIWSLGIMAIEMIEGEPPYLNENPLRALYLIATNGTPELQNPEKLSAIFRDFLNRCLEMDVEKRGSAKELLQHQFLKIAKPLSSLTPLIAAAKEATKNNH
UniProt Q8C6B2: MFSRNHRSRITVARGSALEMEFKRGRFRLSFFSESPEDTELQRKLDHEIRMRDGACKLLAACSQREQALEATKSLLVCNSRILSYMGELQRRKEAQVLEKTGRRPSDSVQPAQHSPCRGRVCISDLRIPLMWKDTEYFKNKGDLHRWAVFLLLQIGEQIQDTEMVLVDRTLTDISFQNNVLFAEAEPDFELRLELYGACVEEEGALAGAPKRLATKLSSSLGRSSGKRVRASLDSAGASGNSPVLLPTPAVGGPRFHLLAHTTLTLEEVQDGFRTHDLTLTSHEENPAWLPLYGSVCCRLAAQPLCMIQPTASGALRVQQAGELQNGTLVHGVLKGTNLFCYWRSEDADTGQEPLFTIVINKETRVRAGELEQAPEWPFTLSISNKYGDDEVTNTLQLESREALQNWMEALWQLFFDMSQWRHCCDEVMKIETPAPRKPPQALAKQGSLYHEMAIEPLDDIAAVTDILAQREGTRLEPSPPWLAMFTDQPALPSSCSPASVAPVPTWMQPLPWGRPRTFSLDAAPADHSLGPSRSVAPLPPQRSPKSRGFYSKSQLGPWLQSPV
UniProt Q8CFN2: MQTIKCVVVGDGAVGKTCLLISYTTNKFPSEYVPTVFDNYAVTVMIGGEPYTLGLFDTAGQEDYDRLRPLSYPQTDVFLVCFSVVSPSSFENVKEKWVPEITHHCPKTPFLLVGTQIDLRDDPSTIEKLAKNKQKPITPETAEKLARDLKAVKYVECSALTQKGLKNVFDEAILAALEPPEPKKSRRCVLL
UniProt P61589: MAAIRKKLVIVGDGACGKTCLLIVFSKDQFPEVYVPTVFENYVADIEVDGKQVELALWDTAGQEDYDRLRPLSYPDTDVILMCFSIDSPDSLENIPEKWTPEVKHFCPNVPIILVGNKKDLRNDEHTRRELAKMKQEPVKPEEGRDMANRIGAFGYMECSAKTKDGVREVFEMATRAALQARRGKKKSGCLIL

The target in assay [1] is GST-PBD (p21-binding domain of PAK1) (UniProt Q13153). The assay can be described thus: pull-down; Rho activation assay: GST-PBD, GST-RBD or GST-ELMO immobilised on glutathione agarose beads, RBL-2H3 lysates (resting or antigen-stimulated; WT, scrambled, RhoGDI knockdown or overexpression strains), 30 min in 50 mM Tris pH 7.5, 150 mM NaCl, 0.5 mM MgCl2, 1% Triton X-100; immunoblot; only the target purified. A general note: A western blot detects proteins with antibodies after separation by electrophoresis.

In assay [2] the target is GST-RBD (Rho-binding domain of Rhotekin) (UniProt Q8C6B2). Described as above.

No constants are given. Whether binding was seen depends on the method and setting. Binding seen in cells or lysates may run through a third protein. Binding can be weak; no strength is given.

On to “Cdc42, endogenous in RBL-2H3 cells (from UniProt Q8CFN2 1-191)”, for which, in assay [1], the binding result is “binds”.

As for “RhoA, endogenous in RBL-2H3 cells (from UniProt P61589 1-193)”, in assay [2], the binding entry was “binds”.
